In patent US11040954B1, “CXCR3 receptor agonists” (RECEPTOS LLC, priority 2016, dated 2021):
pEC50: −log10 of the molar value. The match of structure and compound is tentative.

Chains of the proteins cited; added tags and fusions are not shown.
UniProt P49682, whole entry: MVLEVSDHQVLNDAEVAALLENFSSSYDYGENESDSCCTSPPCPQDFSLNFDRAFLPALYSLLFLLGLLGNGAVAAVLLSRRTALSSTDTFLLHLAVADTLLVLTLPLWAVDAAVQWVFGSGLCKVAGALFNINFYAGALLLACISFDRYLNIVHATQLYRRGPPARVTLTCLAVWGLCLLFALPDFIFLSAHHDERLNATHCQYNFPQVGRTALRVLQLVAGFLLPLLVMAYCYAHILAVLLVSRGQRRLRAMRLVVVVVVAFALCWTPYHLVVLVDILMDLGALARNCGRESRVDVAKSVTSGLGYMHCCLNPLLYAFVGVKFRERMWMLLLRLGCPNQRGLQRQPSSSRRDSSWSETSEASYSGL

Target: CXCR3 (Homo sapiens, UniProt P49682)
Experiment: CXCR3 cAMP agonist assay (cAMP Hunter CHOK1 CXCR3 Gi cell line, forskolin-stimulated, HitHunter cAMP detection)
Details: read-out: Activity (CXCR3 cAMP agonist assay compound EC50); cAMP Hunter CHOK1 CXCR3 Gi cells, 20 μM forskolin, 30 minutes
Method: The cAMP Hunter™ CHOK1 CXCR3 Gi cell line was purchased from DiscoveRx. Cells were seeded into a 96-well white assay plate at 50,000 cells/well/94 μl assay buffer (Hank's Buffered Saline Solution, 10 mM HEPES, 0.1% fatty acid-free BSA, pH 7.4) and immediately assayed in suspension. Forskolin was added to 20 μM (5 μl of 400 μM stock) simultaneously with a 12-point dose response curve of compound at 0-10 μM (1 μl of 100× stock in 100% DMSO), and cells were incubated for 30 minutes. A cAMP standard curve is run as an assay control. A CXCL11 dose response was included to determine maximum efficacy. Direct detection of cAMP was carried out using the DiscoveRx HitHunter cAMP kit according to manufacturer's instructions, and luminescence was read using a SpectraMax M5 plate reader.
The CXCR3 cAMP agonist assay compound EC50 is denoted as follows: + denotes activity <0.050++ denotes activity between 0.050 and 0.25+++ denotes activity between 0.25 and 0.5 μM, and ++++ denotes activity >0.5 μM.

pEC50: 6.60 to 7.30
SMILES: Cc1cc(NC(=O)[C@H](CCCCN)NC(=O)[C@@H]2Cc3ccccc3CN2C(=O)CCC(=O)c2ccc(F)cc2)ccc1Cl
